Results as given in article doi:10.1101/2025.01.28.635281 (bioRxiv, 2025).
No constants are given. Whether binding was seen depends on the method and setting. Some entries that bind do so weakly or less than the wild type.

Protein sequences, listed by entry. Tags and fused reporters are not part of them. Lines headed by an entry give the natural chain unless they say otherwise; changes in a name come on top.
UniProt P0A6A8, whole entry, looked up, stated change not applied: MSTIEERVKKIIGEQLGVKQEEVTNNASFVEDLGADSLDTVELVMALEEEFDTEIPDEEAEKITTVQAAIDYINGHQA

Target: E47A/E48A double mutant of E. coli acyl carrier protein (E. coli) (UniProt P0A6A8)
Test: NMR titration

B1: Bacillus subtilis Sfp (Surfactin synthetase activating enzyme, 4'-phosphopantetheinyl transferase) (enzyme, UniProt P39135 1-224)
chain: MKIYGIYMDRPLSQEENERFMSFISPEKREKCRRFYHKEDAHRTLLGDVLVRSVISRQYQLDKSDIRFSTQEYGKPCIPDLPDAHFNISHSGRWVICAFDSQPIGIDIEKTKPISLEIAKRFFSKTEYSDLLAKDKDEQTDYFYHLWSMKESFIKQEGKGLSLPLDSFSVRLHQDGQVSIELPDSHSPCYIKTYEVDPGYKMAVCAAHPDFPEDITMVSYEELL
- binding: binds
